Source: the supplement of paper PMC5662767
Where a name gives a salt, the structure may show the parent alone. The list shows a part of the results. Part of the spread comes from offsets between plates or batches.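 Smoothened with circularly permuted GFP in its cytoplasmic tail is carried by a clonal Drosophila S2 line; fluorescence appears when Hh-driven phosphorylation opens an inhibitory loop. Per-cell signal, read by flow cytometry, was scaled to Hh-stimulated untreated cells. Hits were consistent fluorescence-shifting groups of inhibitors sharing pathway targets, not single compounds.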 Residues, ends and D or L forms follow the SMILES beside them. *: point of attachment. Cbz = O=C(OCc1ccccc1)*

System: Drosophila S2 cl14 SmoIP sensor cells
Assay: normalized SmoIP GFP fluorescence (untreated unstimulated = 0%, untreated Hh-stimulated = 100%); higher = more Smo activation sensor fluorescence
Details: stimulation: Hh conditioned medium (+Hh); compound concentration: 15 uM; 24 h

Structure (SMILES)	normalized SmoIP GFP fluorescence [%]
CS(=O)(=O)N1CCc2c(-c3cnc(N)nc3)nc(N3CCOCC3)nc21	76.8
CC(=O)S[C@@H]1CC2=CC(=O)CC[C@]2(C)[C@H]2CC[C@@]3(C)[C@@H](CC[C@@]34CCC(=O)O4)[C@H]12 [spironolactone]	121
CO[C@H]1C[C@@H]2CC[C@@H](C)[C@@](O)(O2)C(=O)C(=O)N2CCCC[C@H]2C(=O)O[C@H]([C@H](C)C[C@@H]2CC[C@@H](OP(C)(C)=O)[C@H](OC)C2)CC(=O)[C@H](C)/C=C(\C)[C@@H](O)[C@@H](OC)C(=O)[C@H](C)C[C@H](C)/C=C/C=C/C=C/1C [Deforolimus]	60.6
CC(C)c1cc(C(=O)N2Cc3ccc(CN4CCN(C)CC4)cc3C2)c(O)cc1O	169
c1cncc(CN2CCC(n3ncc4c(N5CCOCC5)nc(-c5ccc6[nH]ccc6c5)nc43)CC2)c1	145
Cc1cc(Nc2nc(N[C@@H](C)c3ccc(F)cc3)c(C#N)cc2F)n[nH]1	104
CC(C)C[C@@H](C=O)NC(=O)[C@H](CC(C)C)NC(=O)[C@H](CC(C)C)NC(=O)OCc1ccccc1 (Cbz-Leu-Leu-Leu-aldehyde)	99.1
CCCNC(=O)Nc1ccc(Oc2ncnc3cc(OC)c(OC)cc23)cc1Cl	147
CCOC(=O)[C@H](CCc1ccccc1)N[C@@H](C)C(=O)N1CCC[C@H]1C(=O)O [Enalapril-maleate(Vasotec)]	116
Cc1cc(C(C)Nc2ccccc2)c2nc(N3CCOCC3)cc(=O)n2c1 (centres undefined)	154
O=C(O)CCc1ccc(NCc2cccc(Oc3ccccc3)c2)cc1	103
CN1CCC[C@@H]1Cc1c[nH]c2ccc(CCS(=O)(=O)c3ccccc3)cc12 [eletriptan-hydrobromide]	124
CCCCNC(=O)NS(=O)(=O)c1ccc(C)cc1 [tolbutamide]	123
COc1ccc2c(c1)C(=O)N(CCc1ccc(S(=O)(=O)NC(=O)NC3CCCCC3)cc1)C(=O)C2(C)C [gliquidone]	112
CC(=O)/N=c1/sc(S(N)(=O)=O)nn1C [methazolamide]	128
COc1ccc(-n2nc(C(N)=O)c3c2C(=O)N(c2ccc(N4CCCCC4=O)cc2)CC3)cc1	138
O=c1n(CCCN2CCN(c3cccc(Cl)c3)CC2)nc2ccccn12 [trazodone-hydrochloride-desyrel]	182

As a working copy, part of the list above.
Structure (SMILES)	normalized SmoIP GFP fluorescence [%]
CC(=O)S[C@@H]1CC2=CC(=O)CC[C@]2(C)[C@H]2CC[C@@]3(C)[C@@H](CC[C@@]34CCC(=O)O4)[C@H]12 [spironolactone]	121
CO[C@H]1C[C@@H]2CC[C@@H](C)[C@@](O)(O2)C(=O)C(=O)N2CCCC[C@H]2C(=O)O[C@H]([C@H](C)C[C@@H]2CC[C@@H](OP(C)(C)=O)[C@H](OC)C2)CC(=O)[C@H](C)/C=C(\C)[C@@H](O)[C@@H](OC)C(=O)[C@H](C)C[C@H](C)/C=C/C=C/C=C/1C [Deforolimus]	60.6

Later entries:

Structure (SMILES)	normalized SmoIP GFP fluorescence [%]
O=C1c2ccc(Nc3ccc(F)cc3F)cc2CCc2ccc(OC[C@H](O)CO)cc21 [skepinone-l]	100
c1ccc2c(Oc3nc(Nc4ccc(N5CCOCC5)cc4)c4ncn(C5CCCCC5)c4n3)cccc2c1 [purmorphamine]	149
CC1(C)O[C@@H]2[C@@H](CO[C@@]3(COS(N)(=O)=O)OC(C)(C)O[C@@H]23)O1 [Topiramate]	142
CCS(=O)(=O)c1cccc(-c2cc(C(=O)NC3CCN(C)CC3)c(C)c3[nH]c4ncc(C)cc4c23)c1	88.3
Nc1ccc(-c2ccc3ncc4ccc(=O)n(-c5cccc(C(F)(F)F)c5)c4c3c2)cn1 [torin-2]	48.4
Oc1cccc(-c2nc(N3CCOCC3)c3oc4ncccc4c3n2)c1	121
COc1ccc(CNc2nc(N3CCC[C@H]3CO)ncc2C(=O)NCc2ncccn2)cc1Cl [avanafil]	105
O=C(NS(=O)(=O)c1ccc(Br)s1)c1ccc(Cl)cc1Cl [tasisulam]	123
c1cnc2cc3c(cc2n1)[C@@H]1CNC[C@H]3C1 [Varenicline-tartrate]	132
O=C(/C=C\n1cnc(-c2cc(C(F)(F)F)cc(C(F)(F)F)c2)n1)NNc1cnccn1	162
COC(=O)C1=C(C#N)NC(C)=C(C(=O)OC(C)C)C1c1cccc([N+](=O)[O-])c1 (centres undefined) [nilvadipine-arc029]	191
O=C(NCc1ccccc1)c1csc(Nc2ccncn2)n1 [Thiazovivin]	146
Nc1nnc(-c2cccc(Cl)c2Cl)c(N)n1 [lamotrigine]	118
Cc1cc([C@@H](C)Nc2ccccc2C(=O)O)c2nc(N3CCOCC3)cc(=O)n2c1	84.6
CN1CCC[C@@H]1CCO[C@](C)(c1ccccc1)c1ccc(Cl)cc1 [Clemastine-Fumarate]	195
CN(C)CCC(c1ccc(Br)cc1)c1ccccn1 (centres undefined) [brompheniramine]	134
Nc1ccn([C@H]2CC[C@@H](CO)O2)c(=O)n1 [Zalcitabine]	168
